From patent publication US20080187528A1 (FUNCTIONAL GENETICS, published 2008)
Results are given in words; binding and its absence hold for the method and conditions named. For part of these data: Binding seen in cells or lysates may run through a third protein. Some entries that bind do so weakly or less than the wild type.

Amino acid sequences for entries named in this document (tags omitted). A change or cut given only in a name is not applied to a line headed by its entry.
UniProt Q99816: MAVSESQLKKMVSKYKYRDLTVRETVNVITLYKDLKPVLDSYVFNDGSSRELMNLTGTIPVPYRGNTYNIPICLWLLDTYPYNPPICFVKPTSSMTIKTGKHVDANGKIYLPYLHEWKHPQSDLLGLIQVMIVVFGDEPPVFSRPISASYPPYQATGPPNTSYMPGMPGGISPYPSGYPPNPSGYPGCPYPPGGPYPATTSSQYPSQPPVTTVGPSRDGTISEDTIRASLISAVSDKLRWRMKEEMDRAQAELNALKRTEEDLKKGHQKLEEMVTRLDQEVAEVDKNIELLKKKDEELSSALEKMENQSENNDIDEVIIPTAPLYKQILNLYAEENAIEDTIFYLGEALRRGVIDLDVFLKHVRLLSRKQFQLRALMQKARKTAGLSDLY
UniProt Q05128: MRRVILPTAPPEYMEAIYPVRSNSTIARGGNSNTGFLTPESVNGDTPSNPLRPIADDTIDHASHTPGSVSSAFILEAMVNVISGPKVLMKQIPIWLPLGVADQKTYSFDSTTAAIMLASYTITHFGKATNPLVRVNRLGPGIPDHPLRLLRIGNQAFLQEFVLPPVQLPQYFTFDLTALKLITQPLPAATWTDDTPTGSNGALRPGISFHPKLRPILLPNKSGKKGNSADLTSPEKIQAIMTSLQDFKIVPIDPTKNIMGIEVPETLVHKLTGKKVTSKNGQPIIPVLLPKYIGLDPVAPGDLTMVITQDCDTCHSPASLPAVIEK

How the values were obtained:
[1] = target: full length TSG101 C-terminally tagged with a Myc epitope (human) (UniProt Q99816); assay: co-immunoprecipitation with anti-Myc antibody from 293T lysates
[2] = target: full length TSG101 C-terminally tagged with a Myc epitope (human) (UniProt Q99816); assay: co-immunoprecipitation with anti Myc (figure legend)
[3] = target: Ebola VP40 (1-326) (Ebola virus (EBOV)) (UniProt Q05128); assay: Far Western (figure legend)

Substance	binding [1]	binding [2]	binding [3]
Ebola VP40 (1-326) (from UniProt Q05128 1-326)	binds	binds	–
purified TSG101 protein that contains only the UEV domain (from UniProt Q99816 2-145)	–	–	binds
